Results deposited as PubChem BioAssay AID1259254 (NCATS, 2017)
Screen: 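Gene knock-downs that lead to re-replication, shown by excess G2 DNA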 (primary screen). Cell system: human HCT116 colorectal cancer cells. Reagent: single siRNA against human genes. Duration: 3 days. Detection: 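Nuclei stained with Hoechst and imaged; cell-cycle phase assigned by DNA content; G2 share scaled per plate, non-targeting siRNA 0%, GMNN siRNA 100%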. Scale: G2 robust z-score: higher = more G2 cells, more excess DNA replication. Rule for the call: 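Active siRNAs have a G2 robust z of 5 or more median absolute deviations over the median, which in these data means about 38% or higher of GMNN control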.
In all, the deposit lists about 59,000 reagents; shown is an unselected part. About 1,550 of them (2.6%) were called active. 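G2 share is only a proxy for re-replication; each gene was hit by three separate siRNAs, and active genes were retested.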 Reagents against one gene are numbered here. Further read-outs or replicates are left out here. Reagent sequences are not shown. Not stated in the record: the amount of reagent.

LRRC37A4P (leucine rich repeat containing 37 member A4, pseudogene) #1
- G2 robust z-score: 0.823
- activity call: inactive

LRRC37A4P (leucine rich repeat containing 37 member A4, pseudogene) #2
- G2 robust z-score: -0.636
- activity call: inactive

LRRC37A4P (leucine rich repeat containing 37 member A4, pseudogene) #3
- G2 robust z-score: 1
- activity call: inactive

C4A (complement C4A (Chido/Rodgers blood group)) #1
- G2 robust z-score: 0.00841
- activity call: inactive

C4A (complement C4A (Chido/Rodgers blood group)) #2
- G2 robust z-score: 0.849
- activity call: inactive

C4A (complement C4A (Chido/Rodgers blood group)) #3
- G2 robust z-score: -0.703
- activity call: inactive

ZSCAN4 (zinc finger and SCAN domain containing 4) #1
- G2 robust z-score: 1.12
- activity call: inactive

ZSCAN4 (zinc finger and SCAN domain containing 4) #2
- G2 robust z-score: -0.742
- activity call: inactive

ZSCAN4 (zinc finger and SCAN domain containing 4) #3
- G2 robust z-score: 0.147
- activity call: inactive

MYBPH (myosin binding protein H) #1
- G2 robust z-score: -0.737
- activity call: inactive

MYBPH (myosin binding protein H) #2
- G2 robust z-score: -0.671
- activity call: inactive

MYBPH (myosin binding protein H) #3
- G2 robust z-score: -0.483
- activity call: inactive

ATL3 (atlastin GTPase 3) #1
- G2 robust z-score: 3.64
- activity call: inactive

ATL3 (atlastin GTPase 3) #2
- G2 robust z-score: -1.22
- activity call: inactive

ATL3 (atlastin GTPase 3) #3
- G2 robust z-score: 2.01
- activity call: inactive

MED18 (mediator complex subunit 18) #1
- G2 robust z-score: -0.365
- activity call: inactive

MED18 (mediator complex subunit 18) #2
- G2 robust z-score: -1.26
- activity call: inactive

MED18 (mediator complex subunit 18) #3
- G2 robust z-score: 0.0307
- activity call: inactive

MRPL33 (mitochondrial ribosomal protein L33) #1
- G2 robust z-score: -0.698
- activity call: inactive

MRPL33 (mitochondrial ribosomal protein L33) #2
- G2 robust z-score: 0.412
- activity call: inactive

MRPL33 (mitochondrial ribosomal protein L33) #3
- G2 robust z-score: -0.315
- activity call: inactive

CSAG3 (CSAG family member 3) #1
- G2 robust z-score: -0.55
- activity call: inactive

CSAG3 (CSAG family member 3) #2
- G2 robust z-score: -0.207
- activity call: inactive

CSAG3 (CSAG family member 3) #3
- G2 robust z-score: 0.779
- activity call: inactive

IDE (insulin degrading enzyme) #1
- G2 robust z-score: 2.5
- activity call: inactive

IDE (insulin degrading enzyme) #2
- G2 robust z-score: -1.03
- activity call: inactive

IDE (insulin degrading enzyme) #3
- G2 robust z-score: -0.505
- activity call: inactive

ABLIM3 (actin binding LIM protein family member 3) #1
- G2 robust z-score: -0.569
- activity call: inactive

ABLIM3 (actin binding LIM protein family member 3) #2
- G2 robust z-score: 0.796
- activity call: inactive

ABLIM3 (actin binding LIM protein family member 3) #3
- G2 robust z-score: -1.21
- activity call: inactive

4 consecutive reagents already listed:
IDE (insulin degrading enzyme) #3
- G2 robust z-score: -0.505
- activity call: inactive

ABLIM3 (actin binding LIM protein family member 3) #1
- G2 robust z-score: -0.569
- activity call: inactive

ABLIM3 (actin binding LIM protein family member 3) #2
- G2 robust z-score: 0.796
- activity call: inactive

ABLIM3 (actin binding LIM protein family member 3) #3
- G2 robust z-score: -1.21
- activity call: inactive
